From publication PMC5070881
Where a chain is given by its changes, count along the chain named. These are yes or no findings as the source states them, for the method shown. Binding can be weak; no strength is given. For some assays here: In cells and extracts the contact can be indirect. For some assays here: Sequences can lack the tags named with a protein.

B1: 10xHis-tagged Arabidopsis Rab5B (protein, UniProt Q9SN68 1-200)
chain: MAAAGNKSINAKLVLLGDVGAGKSSLVLRFVKDQFVEFQESTIGAAFFSQTLAVNDATVKFEIWDTAGQERYHSLAPMYYRGAAAAIIVFDVTNQASFERAKKWVQELQAQGNPNMVMALAGNKSDLLDARKVTAEDAQTYAQENGLFFMETSAKTATNVKEIFYEIARRLPRVQPTENPTGMVLPDRAMDRAVSSSCCA
B2: nYFP-AtRab5B (protein, UniProt Q9SN68 1-200)
chain: B1 chain
B3: Vps21Q66L (split ubiquitin prey) (protein, UniProt P36017 1-210)
chain: MNTSVTSIKLVLLGEAAVGKSSIVLRFVSNDFAENKEPTIGAAFLTQRVTINEHTVKFEIWDTAGLERFASLAPMYYRNAQAALVVYDVTKPQSFIKARHWVKELHEQASKDIIIALVGNKIDMLQEGGERKVAREEGEKLAEEKGLLFFETSAKTGENVNDVFLGIGEKIPLKTAEEQNSASNERESNNQRVDLNAANDGTSANSACSC
B4: Vps21p, wild type (split ubiquitin prey) (protein, UniProt P36017 1-210)
chain: B3 chain with L66Q
B5: Vps21S21L (split ubiquitin prey) (protein, UniProt P36017 1-210)
chain: B3 chain with S21L, L66Q
B6: 10xHis-tagged yeast Vps21 (protein, UniProt P36017 1-210)
chain: B3 chain with L66Q

What was measured:
[1] = biological target: MBP-p33C (the C-terminal soluble portion of TBSV p33) (Tomato bushy stunt virus); assay: pull-down; MBP-affinity purified MBP-p33C or MBP-p36C as bait; captured 10xHis-tagged Vps21 or AtRab5B detected by western blot with anti-His antibody; only the target purified
[2] = biological target: MBP-p36C (the C-terminal soluble portion of CIRV p36) (Carnation Italian ringspot virus); assay: as above
[3] = biological target: CIRV p36-cYFP (Carnation Italian ringspot virus); assay: split reporter; BiFC in N. benthamiana leaves; nYFP-AtRab5B agro-infiltrated with p33-cYFP or p36-cYFP (OD600 0.4 each), confocal microscopy 2 d after agro-infiltration, GFP channel
[4] = biological target: CIRV p36 replication protein (split ubiquitin bait) (Carnation Italian ringspot virus); assay: two-hybrid; split ubiquitin membrane yeast two-hybrid (MYTH) in wt (NMY51) yeast; bait p33 or p36 co-expressed with prey Vps21p forms; growth read-out

Binder | binding [1] | binding [2] | binding [4] | further results
B1 | binds | binds |  | 
B2 |  |  |  | binding [3]: binds
B3 |  |  | binds | 
B4 |  |  | binds | 
B5 |  |  | binds | 
B6 | binds | binds |  | 
